Drawing on article PMC11293393, this text covers binding for two substances.

Amino acid sequences for entries named in this document (tags omitted).
UniProt Q6PDQ2: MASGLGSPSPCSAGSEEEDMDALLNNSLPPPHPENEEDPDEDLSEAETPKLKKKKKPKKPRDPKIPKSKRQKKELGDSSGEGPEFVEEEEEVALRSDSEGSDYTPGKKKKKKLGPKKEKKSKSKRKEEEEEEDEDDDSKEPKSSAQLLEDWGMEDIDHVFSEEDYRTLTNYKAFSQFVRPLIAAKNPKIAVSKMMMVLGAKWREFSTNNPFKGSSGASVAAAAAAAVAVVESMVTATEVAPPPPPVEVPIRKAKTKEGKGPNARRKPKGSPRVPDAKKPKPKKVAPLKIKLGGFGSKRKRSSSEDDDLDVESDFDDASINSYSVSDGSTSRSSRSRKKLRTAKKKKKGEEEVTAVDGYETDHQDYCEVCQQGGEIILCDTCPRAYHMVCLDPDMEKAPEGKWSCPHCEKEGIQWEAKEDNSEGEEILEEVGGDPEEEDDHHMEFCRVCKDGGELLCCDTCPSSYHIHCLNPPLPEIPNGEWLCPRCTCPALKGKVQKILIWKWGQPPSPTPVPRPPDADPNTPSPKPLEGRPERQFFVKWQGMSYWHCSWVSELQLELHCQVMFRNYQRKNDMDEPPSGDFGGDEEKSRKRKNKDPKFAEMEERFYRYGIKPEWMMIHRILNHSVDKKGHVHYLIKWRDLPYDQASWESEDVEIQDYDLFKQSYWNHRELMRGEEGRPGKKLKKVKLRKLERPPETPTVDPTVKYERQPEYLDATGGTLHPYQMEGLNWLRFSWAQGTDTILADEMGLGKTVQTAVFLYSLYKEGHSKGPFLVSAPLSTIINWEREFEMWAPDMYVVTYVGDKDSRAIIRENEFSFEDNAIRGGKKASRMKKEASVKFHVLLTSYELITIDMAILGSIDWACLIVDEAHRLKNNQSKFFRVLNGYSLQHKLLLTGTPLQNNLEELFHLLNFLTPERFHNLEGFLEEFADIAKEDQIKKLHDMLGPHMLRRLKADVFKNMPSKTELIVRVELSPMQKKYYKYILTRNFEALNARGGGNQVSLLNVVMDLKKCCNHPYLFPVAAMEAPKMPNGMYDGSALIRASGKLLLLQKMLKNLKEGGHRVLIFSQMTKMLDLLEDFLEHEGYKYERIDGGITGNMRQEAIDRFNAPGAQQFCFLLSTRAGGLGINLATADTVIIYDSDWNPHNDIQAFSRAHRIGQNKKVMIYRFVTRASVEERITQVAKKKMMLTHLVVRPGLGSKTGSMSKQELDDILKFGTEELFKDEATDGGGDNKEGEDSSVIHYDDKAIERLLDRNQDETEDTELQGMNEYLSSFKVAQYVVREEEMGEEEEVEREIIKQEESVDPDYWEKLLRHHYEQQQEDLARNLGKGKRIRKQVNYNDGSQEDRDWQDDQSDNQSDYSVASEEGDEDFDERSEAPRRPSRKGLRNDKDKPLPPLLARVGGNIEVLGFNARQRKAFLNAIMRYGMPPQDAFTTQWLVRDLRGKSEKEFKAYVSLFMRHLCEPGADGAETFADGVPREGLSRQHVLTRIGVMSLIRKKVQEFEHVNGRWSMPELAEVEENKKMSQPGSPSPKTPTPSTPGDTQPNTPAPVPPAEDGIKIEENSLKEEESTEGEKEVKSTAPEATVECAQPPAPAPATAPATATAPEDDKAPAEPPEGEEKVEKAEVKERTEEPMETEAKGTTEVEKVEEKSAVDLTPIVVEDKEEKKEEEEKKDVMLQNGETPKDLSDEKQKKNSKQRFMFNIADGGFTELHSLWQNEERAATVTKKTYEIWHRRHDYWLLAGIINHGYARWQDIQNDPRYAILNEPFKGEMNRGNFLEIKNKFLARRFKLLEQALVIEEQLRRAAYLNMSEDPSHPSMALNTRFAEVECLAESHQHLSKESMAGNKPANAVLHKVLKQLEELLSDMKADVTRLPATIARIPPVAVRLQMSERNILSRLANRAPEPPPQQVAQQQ
UniProt P83917: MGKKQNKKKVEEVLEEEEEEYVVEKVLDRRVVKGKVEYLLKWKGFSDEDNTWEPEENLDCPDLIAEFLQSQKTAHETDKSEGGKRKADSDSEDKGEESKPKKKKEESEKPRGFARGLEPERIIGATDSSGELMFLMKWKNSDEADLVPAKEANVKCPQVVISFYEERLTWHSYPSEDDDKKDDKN

In the assay the target is T1, ADNP2^Avi-3xFLAG (mouse (endogenous in mouse ES cells)) (UniProt Q8CHC8).
T1 sequence: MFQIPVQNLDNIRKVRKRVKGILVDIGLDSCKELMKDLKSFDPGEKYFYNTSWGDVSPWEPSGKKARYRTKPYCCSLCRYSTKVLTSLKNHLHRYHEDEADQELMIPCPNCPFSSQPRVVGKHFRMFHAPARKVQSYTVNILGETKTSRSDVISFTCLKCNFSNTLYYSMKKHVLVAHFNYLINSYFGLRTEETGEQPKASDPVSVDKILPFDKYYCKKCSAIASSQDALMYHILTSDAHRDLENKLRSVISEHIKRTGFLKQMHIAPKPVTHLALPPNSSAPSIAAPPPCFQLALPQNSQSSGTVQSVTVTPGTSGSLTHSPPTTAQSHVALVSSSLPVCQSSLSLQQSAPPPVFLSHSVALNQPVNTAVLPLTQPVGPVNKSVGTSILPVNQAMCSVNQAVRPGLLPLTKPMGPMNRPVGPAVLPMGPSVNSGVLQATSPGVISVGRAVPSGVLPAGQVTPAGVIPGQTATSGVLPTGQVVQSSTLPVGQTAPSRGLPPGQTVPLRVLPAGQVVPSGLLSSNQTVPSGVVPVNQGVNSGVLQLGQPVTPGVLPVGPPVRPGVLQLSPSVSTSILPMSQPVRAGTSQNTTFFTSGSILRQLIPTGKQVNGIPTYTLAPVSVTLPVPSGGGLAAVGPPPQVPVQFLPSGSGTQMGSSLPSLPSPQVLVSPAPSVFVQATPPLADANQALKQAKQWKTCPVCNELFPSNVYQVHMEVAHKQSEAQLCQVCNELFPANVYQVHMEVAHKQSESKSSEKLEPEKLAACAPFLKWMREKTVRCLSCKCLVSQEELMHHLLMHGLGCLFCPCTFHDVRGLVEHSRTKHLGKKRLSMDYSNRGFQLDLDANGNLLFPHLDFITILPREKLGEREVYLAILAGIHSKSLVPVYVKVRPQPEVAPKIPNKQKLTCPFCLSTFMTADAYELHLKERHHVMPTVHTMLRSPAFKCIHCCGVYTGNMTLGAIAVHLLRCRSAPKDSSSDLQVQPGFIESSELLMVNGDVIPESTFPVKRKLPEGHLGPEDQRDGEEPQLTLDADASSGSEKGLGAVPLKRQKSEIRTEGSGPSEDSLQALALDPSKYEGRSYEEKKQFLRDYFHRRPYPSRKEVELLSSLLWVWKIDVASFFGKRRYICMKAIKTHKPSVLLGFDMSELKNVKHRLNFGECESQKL
Description: co-IP; pull-down of WT or PxVxL-mutated ADNP2^Avi-3xFLAG from mouse ES cell lysate (NP-40 lysis buffer, 150 mM NaCl, benzonase); beads and detection are in Supplemental Fig. S4B, not shown.

These are yes or no findings as the source states them, for the method shown. In cells and extracts the contact can be indirect. Some binding calls cover weakened binding; strength is not graded here. Where a sequence is shown, tags or fusion partners need not be part of it.

For the substance CHD4 (from UniProt Q6PDQ2 1-1915), the binding entry was “binds”.

With HP1β (from UniProt P83917 1-185), the binding entry is “binds”.
